According to patent US11576382B2, “Naphthalene isoxazoline compounds for controlling invertebrate pests” (FMC Corporation, priority 2018, dated 2023):
Some entries share one result that the patent states for a list of compounds.

Columns and labels:
Type in all cases: in vivo
[1] = test system: diamondback moth (Plutella xylostella (L.)); assay: Test A: control of diamondback moth, foliar spray on mustard plant; settings: assessed after 6 days, very good to excellent levels of control efficacy
[2] = test system: fall armyworm (Spodoptera frugiperda (J. E. Smith)); assay: Test B: control of fall armyworm, foliar spray on corn (maize) plant; settings: assessed after 6 days, very good to excellent levels of control efficacy
[3] = test system: potato leafhopper (Empoasca fabae (Harris)); assay: Test D: control of potato leafhopper through contact and/or systemic means; settings: Soleil bean plant, assessed after 6 days
[4] = test system: green peach aphid (Myzus persicae (Sulzer)); assay: Test E: control of green peach aphid through contact and/or systemic means; settings: radish plant, assessed after 6 days
Description: (§1) Formulation and Spray Methodology for Tests A-H
(§2) Test compounds were formulated using a solution containing 10% acetone, 90% water and 300 ppm Activator 90® non-ionic surfactant (Loveland Products, Loveland, Colo., USA). The formulated compounds were applied in 1 mL of liquid through an atomizer nozzle positioned 1.27 cm (0.5 inches) above the top of each test unit. Test compounds were sprayed at the rates indicated, and each test was replicated three times.
For evaluating control of green peach aphid (Myzus persicae (Sulzer)) through contact and/or systemic means, the test unit consisted of a small open container with a 12-15-day-old radish plant inside. This was pre-infested by placing on a leaf of the test plant 30-40 aphids on a piece of leaf excised from a culture plant (cut-leaf method). The aphids moved onto the test plant as the leaf piece desiccated. After pre-infestation, the soil of the test unit was covered with a layer of sand.
Test compounds were formulated and sprayed at 250, 50 and 10 ppm. After spraying of the formulated test compound, each test unit was allowed to dry for 1 hour and then a black, screened cap was placed on top. The test units were held for 6 days in a growth chamber at 19-21° C. and 50-70% relative humidity. Each test unit was then visually assessed for insect mortality.

[5] = test system: cotton melon aphid (Aphis gossypii (Glover)); assay: Test F: control of cotton melon aphid through contact and/or systemic means; settings: okra plant, assessed after 6 days
Description: as §1, §2
For evaluating control of cotton melon aphid (Aphis gossypii (Glover)) through contact and/or systemic means, the test unit consisted of a small open container with a 5-day-old okra plant inside. This was pre-infested with 30-40 insects on a piece of leaf according to the cut-leaf method, and the soil of the test unit was covered with a layer of sand.
Test compounds were formulated and sprayed at 250, 50 and 10 ppm. After spraying, the test units were maintained in a growth chamber for 6 days at 19° C. and 70% relative humidity. Each test unit was then visually assessed for insect mortality.

[6] = test system: sweetpotato whitefly (Bemisia tabaci (Gennadius)); assay: Test G: control of sweetpotato whitefly through contact and/or systemic means; settings: cotton plant infested with eggs, assessed after 13 days
Description: as §1, §2
For evaluating control of the sweetpotato whitefly (Bemisia tabaci (Gennadius)) through contact and/or systemic means, the test unit consisted of a small open container with a 12-14-day-old cotton plant inside. Prior to the spray application, both cotyledons were removed from the plant, leaving one true leaf for the assay. Adult whiteflies were allowed to lay eggs on the plant and then were removed from the test unit. Cotton plants infested with at least 15 eggs were submitted to the test for spraying.
Test compounds were formulated and sprayed at 250, 50, and 10 ppm. After spraying, the test units were allowed to dry for 1 hour. The cylinders were then removed, and the units were taken to a growth chamber and held for 13 days at 28° C. and 50-70% relative humidity. Each test unit was then visually assessed for insect mortality.

[7] = test system: Western Flower Thrips (Frankliniellla occidentalis (Pergande)); assay: Test H: control of Western Flower Thrips through contact and/or systemic means; settings: Soleil bean plant, assessed after 6 days, very good to excellent levels of control efficacy

| Structure (SMILES) | control efficacy: feeding damage (40% or less feeding damage and/or 100% mortality) ([1]; sprayed at 2 ppm) | control efficacy: feeding damage (40% or less feeding damage and/or 100% mortality) ([1]; sprayed at 10 ppm) | control efficacy: feeding damage (40% or less feeding damage and/or 100% mortality) ([1]; sprayed at 50 ppm) | control efficacy: feeding damage (40% or less feeding damage and/or 100% mortality) ([1]; sprayed at 250 ppm) | control efficacy: feeding damage (40% or less feeding damage and/or 100% mortality) ([2]; sprayed at 2 ppm) | control efficacy: feeding damage (40% or less feeding damage and/or 100% mortality) ([2]; sprayed at 10 ppm) | control efficacy: feeding damage (40% or less feeding damage and/or 100% mortality) ([2]; sprayed at 50 ppm) | control efficacy: feeding damage (40% or less feeding damage and/or 100% mortality) ([2]; sprayed at 250 ppm) | mortality ([3]; sprayed at 50 ppm) | mortality ([3]; sprayed at 250 ppm) | mortality ([4]; sprayed at 250 ppm) | mortality ([5]; sprayed at 250 ppm) | control efficacy: plant damage (30% or less plant damage and/or 100% mortality) ([7]; sprayed at 250 ppm) | mortality ([3]; sprayed at 10 ppm) | mortality ([4]; sprayed at 50 ppm) | mortality ([5]; sprayed at 50 ppm) | mortality ([6]; sprayed at 50 ppm) | control efficacy: plant damage (30% or less plant damage and/or 100% mortality) ([7]; sprayed at 2 ppm) | control efficacy: plant damage (30% or less plant damage and/or 100% mortality) ([7]; sprayed at 10 ppm) | other results |
| --- | --- | --- | --- | --- | --- | --- | --- | --- | --- | --- | --- | --- | --- | --- | --- | --- | --- | --- | --- | --- |
| C[C@H](NC(=O)c1ccc(C2=NOC(c3cc(Cl)c(F)c(C(F)(F)F)c3)(C(F)(F)F)C2)c2ccccc12)C(N)=O (stereo partly shown) [Compound 2] | ≤ 40% | ≤ 40% | ≤ 40% | ≤ 40% | ≤ 40% | ≤ 40% | ≤ 40% | ≤ 40% | at least 80% | at least 80% | at least 80% | at least 80% | ≤ 30% |  |  |  |  |  |  | mortality ([6]; sprayed at 250 ppm): at least 70% |
| CNC(=O)[C@H](C)NC(=O)c1ccc(C2=NOC(c3cc(Cl)c(F)c(Cl)c3)(C(F)(F)F)C2)c2ccccc12 (stereo partly shown) [Compound 3] | ≤ 40% | ≤ 40% |  |  | ≤ 40% | ≤ 40% |  |  | at least 80% |  |  |  |  | at least 80% | at least 80% | at least 80% | at least 70% | ≤ 30% | ≤ 30% |  |
| CC(NC(=O)c1ccc(C2=NOC(c3cc(Cl)c(F)c(Cl)c3)(C(F)(F)F)C2)c2ccccc12)C(N)=O (stereo not shown) [Compound 8] | ≤ 40% | ≤ 40% |  |  | ≤ 40% | ≤ 40% |  |  | at least 80% |  |  |  |  | at least 80% | at least 80% | at least 80% | at least 70% | ≤ 30% | ≤ 30% | mortality ([6]; sprayed at 10 ppm): at least 70% |
| O=C(NCc1ncccn1)c1ccc(C2=NOC(c3cc(Cl)c(F)c(Cl)c3)(C(F)(F)F)C2)c2ccccc12 (stereo not shown) [Compound 10] |  |  | ≤ 40% | ≤ 40% |  |  | ≤ 40% | ≤ 40% |  | at least 80% | at least 80% | at least 80% | ≤ 30% |  |  |  |  |  |  | control efficacy: plant damage (30% or less plant damage and/or 100% mortality) ([7]; sprayed at 50 ppm): ≤ 30% |
